Source: PubChem BioAssay AID1259308 (NCATS, 2017)
Screen: 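Genes whose loss raises luciferase production in HEK293 cells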 (primary screen). Cell system: human HEK293 embryonic kidney cells stably expressing firefly luciferase (HEK-CMV-Luc2-Hygro). Knock-down reagent: single siRNA against human genes, 0.8 pmol siRNA per well. Time to read-out: 72 h. Measured: 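Luciferase light (ONE-Glo) measured on one replicate plate set and viability (CellTiter-Glo) on the other, scaled to a negative control siRNA, with robust z-scores and luciferase per cell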. Direction: total luciferase, z-score and total luciferase, % of control: higher = more reporter protein produced; luciferase per cell, z-score: higher = more reporter output per viable cell; viable cells, % of control: higher = more viable cells. Call rule: 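Active when the median/MAD z-score for overall luciferase is greater than 3; a gene was taken forward for validation with new siRNAs if at least two of its three siRNAs passed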. Calls: active = raised luciferase; inactive = no rise.
In all, the deposit lists about 59,000 reagents; below is an unselected part. Over the whole deposit, about 1,510 (2.6%) are marked active. 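Calls use total luciferase alone and ignore viability, so some active siRNAs may act by altering cell number.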 A number with no mark means an inactive call. The numbers tell different reagents against one gene apart.

| gene | siRNA no. | total luciferase, z-score | total luciferase, % of control | luciferase per cell, z-score | viable cells, % of control |
| --- | --- | --- | --- | --- | --- |
| S100A5 (S100 calcium binding protein A5) | 1 | -0.684 | 68.3 | -0.3 | 82.6 |
| S100A5 (S100 calcium binding protein A5) | 2 | 2.57 | 133 | 2.4 | 78.9 |
| S100A5 (S100 calcium binding protein A5) | 3 | 1.06 | 103 | 0.59 | 98.6 |
| RTP5 (receptor transporter protein 5 (putative)) | 1 | 2.18 | 125 | 2.55 | 71.5 |
| RTP5 (receptor transporter protein 5 (putative)) | 2 | -0.327 | 75.4 | 0.976 | 65.1 |
| RTP5 (receptor transporter protein 5 (putative)) | 3 | -1.26 | 56.9 | 0.645 | 53.7 |
| ARHGEF15 (Rho guanine nucleotide exchange factor 15) | 1 | -0.482 | 72.3 | -0.479 | 91.6 |
| ARHGEF15 (Rho guanine nucleotide exchange factor 15) | 2 | -0.46 | 72.7 | -0.701 | 97.7 |
| ARHGEF15 (Rho guanine nucleotide exchange factor 15) | 3 | 2.63 | 134 | 1.89 | 91.1 |

Records listed so far whose gene name starts with A or a:
| gene | siRNA no. | total luciferase, z-score | total luciferase, % of control | luciferase per cell, z-score | viable cells, % of control |
| --- | --- | --- | --- | --- | --- |
| ARHGEF15 (Rho guanine nucleotide exchange factor 15) | 1 | -0.482 | 72.3 | -0.479 | 91.6 |
| ARHGEF15 (Rho guanine nucleotide exchange factor 15) | 2 | -0.46 | 72.7 | -0.701 | 97.7 |
| ARHGEF15 (Rho guanine nucleotide exchange factor 15) | 3 | 2.63 | 134 | 1.89 | 91.1 |

Next records follow:
| gene | siRNA no. | total luciferase, z-score | total luciferase, % of control | luciferase per cell, z-score | viable cells, % of control |
| --- | --- | --- | --- | --- | --- |
| WDR27 (WD repeat domain 27) | 1 | -0.619 | 69.6 | 0.435 | 69.3 |
| WDR27 (WD repeat domain 27) | 2 | -1.85 | 45.1 | -1.47 | 74.2 |
| WDR27 (WD repeat domain 27) | 3 | -0.41 | 73.7 | -0.117 | 85 |
| CDIPT (CDP-diacylglycerol--inositol 3-phosphatidyltransferase) | 1 | 0.505 | 91.9 | 0.493 | 90.2 |
| CDIPT (CDP-diacylglycerol--inositol 3-phosphatidyltransferase) | 2 | 0.272 | 87.3 | 0.0697 | 95.8 |
| CDIPT (CDP-diacylglycerol--inositol 3-phosphatidyltransferase) | 3 | 1.35 | 109 | 1.34 | 85.4 |
| ZNF12 (zinc finger protein 12) | 1 | -0.119 | 79.5 | -0.578 | 103 |
| ZNF12 (zinc finger protein 12) | 2 | 0.135 | 84.6 | -0.08 | 96.5 |
| ZNF12 (zinc finger protein 12) | 3 | 0.363 | 89.1 | 0.315 | 91.7 |
| STUB1 (STIP1 homology and U-box containing protein 1) | 1 | 0.522 | 92.3 | 0.262 | 96.2 |
| STUB1 (STIP1 homology and U-box containing protein 1) | 2 | -0.0686 | 80.5 | -0.0856 | 92 |
| STUB1 (STIP1 homology and U-box containing protein 1) | 3 | -0.282 | 76.3 | -0.555 | 98.6 |
| GABRR2 (gamma-aminobutyric acid type A receptor subunit rho2) | 1 | -1.2 | 57.9 | -0.0676 | 65.9 |
| GABRR2 (gamma-aminobutyric acid type A receptor subunit rho2) | 2 | 0.397 | 89.8 | -0.157 | 105 |
| GABRR2 (gamma-aminobutyric acid type A receptor subunit rho2) | 3 | 0.415 | 90.1 | -0.297 | 109 |
